From PMC9853869 (Journal of the American Chemical Society, 2023)

What was measured:
[1] = Fmoc solid-phase peptide synthesis; 2-chlorotrityl chloride resin; DIC/OxymaPure (SPPS); EDC/HOAt, PyAOP/HOAt (solution); conditions: whole synthesis
[2] = general procedure: hybrid (solid and solution phase) peptide synthesis; 2-chlorotrityl chloride resin (200-400 mesh, 1.50-1.90 mmol/g, Bachem); DIC/OxymaPure (SPPS); EDC/HOAt, PyAOP/HOAt (solution); conditions: coupling step
[3] = peptide synthesis; conditions: whole synthesis

Q: Which isolated yield [1] does the source give for “(3S,6R,9R,12S,15S)-3-(4-(Allyloxy)phenyl)-6,9-diisopropyl-12,13” here?
A: Its isolated yield is 68% yield.

Q: With Boc-Protected Fragment ABCD-D,L as the substance, how does the step yield [2] read?
A: The step yield was 55% yield.

Q: With “Methyl ((2R)-2-(2-((R)-2-amino-3-methylbutanamido)-3-methyl-3-nitrobutanamido)-5-((tert-butoxycarbonyl)-amino)pentanoyl)-L-valinate” as the substance, how does the isolated yield ([3]; starting from protected D-ornithine 2) read?
A: Its isolated yield is 66% yield.

Q: Which difficulty met [3] does the source give for myxovalargin A here?
A: The difficulty met was “the final removals of the protecting groups again faced the hurdles already menti”.

Q: And the outcome [3]?
A: The outcome was “Initial attempts to synthesize MyxA under solution phase conditions had to be terminated unsuccessfully”.
